Assay results taken from PMC10097598, “Cryo-EM structure of the transposon-associated TnpB enzyme”.
These are yes or no findings as the source states them, for the method shown.

Molecular target: TnpB from Deinococcus radiodurans ISDra2 (Deinococcus radiodurans) (UniProt Q7DF80)
Test: cryo-EM structure; TnpB–ωRNA–target DNA ternary complex, purified on Superdex 200 Increase in 20 mM Tris-HCl pH 8.0, 150 mM NaCl, 2 mM MgCl2, 10 μM ZnCl2, 1 mM DTT; 0.5 mg/ml on grids; both purified

binding: no binding
B1: TnpB from Deinococcus radiodurans ISDra2 (enzyme, UniProt Q7DF80 1-408)
chain: MIRNKAFVVRLYPNAAQTELINRTLGSARFVYNHFLARRIAAYKESGKGLTYGQTSSELTLLKQAEETSWLSEVDKFALQNSLKNLETAYKNFFRTVKQSGKKVGFPRFRKKRTGESYRTQFTNNNIQIGEGRLKLPKLGWVKTKGQQDIQGKILNVTVRRIHEGHYEASVLCEVEIPYLPAAPKFAAGVDVGIKDFAIVTDGVRFKHEQNPKYYRSTLKRLRKAQQTLSRRKKGSARYGKAKTKLARIHKRIVNKRQDFLHKLTTSLVREYEIIGTEHLKPDNMRKNRRLALSISDAGWGEFIRQLEYKAAWYGRLVSKVSPYFPSSQLCHDCGFKNPEVKNLAVRTWTCPNCGETHDRDENAALNIRREALVAAGISDTLNAHGGYVRPASAGNGLRSENHATLVV
